Data on 22 molecules can be found in patent US20100222280A1.

Results are given in words; binding and its absence hold for the method and conditions named. Binding can be weak; no strength is given.

The target in the test is biotinylated TGF-β1 (Homo sapiens (Human)). Description: phage display biopanning, peptide on M13 pIII.

Take PPYHRFWRGHRHAVQ [peptide identified by SEQ ID NO: 6]: the binding result was “binds”.

RLAHSHRHRSHVALT [peptide identified by SEQ ID NO: 4]: the binding result is on record as “binds”.

On to RRFHFHSRMVAVDNS [peptide identified by SEQ ID NO: 20], for which the binding result is “binds”.

As to DRRIFWWSLRSAPGA [peptide identified by SEQ ID NO: 1], the binding result is reported as “binds”.

With WHWRHRIPLQLAAGR [peptide identified by SEQ ID NO: 8], the binding result is recorded as “binds”.

On to RRWVRYPVHLHSPIV [peptide identified by SEQ ID NO: 5], for which the binding entry is given as “binds”.

GWHSLLHSRYHRLAA [peptide identified by SEQ ID NO: 9]: the binding result is “binds”.

Regarding RLHGHRSHRFTHVAQ [peptide identified by SEQ ID NO: 16], the binding entry is “binds”.

In the case of RKWFLQHRRMPVSVL [peptide identified by SEQ ID NO: 13], the binding entry is reported as “binds”.

As to RHLSHFKWLRSHGLD [peptide identified by SEQ ID NO: 19], the binding result is “binds”.

As to WHKYFLRRPLSVGLG [peptide identified by SEQ ID NO: 12], the binding result was “binds”.

As to FVWVRFHRLPRQIYT [peptide identified by SEQ ID NO: 10], the binding result is given as “binds”.

Take DRRIFWWSNRSAPGA [peptide identified by SEQ ID NO: 2]: the binding result is given as “binds”.

For KRIWFIPRSSWYERA [TGF-β1 inhibitor peptide P17 (SEQ ID NO: 17)], the binding result is recorded as “binds”.

Take SGRRHLHRHHIFSLP [peptide identified by SEQ ID NO: 14]: the binding result is “binds”.

In the case of HRISHFAHRYLARLH [peptide identified by SEQ ID NO: 7], the binding entry is “binds”.

Regarding WHKYFLRRPLSVRTR [peptide identified by SEQ ID NO: 11], the binding entry is reported as “binds”.

As to GWITFHRRHHDRVLS [peptide identified by SEQ ID NO: 15], the binding result is listed as “binds”.

With HVRLHHYLRHRSLPN [peptide identified by SEQ ID NO: 21], the binding result is recorded as “binds”.

VPMALNHGVYVMVSS [peptide identified by SEQ ID NO: 22]: the binding result is “binds”.

RFFTRFPWHYHASRL [peptide identified by SEQ ID NO: 3]: the binding entry is listed as “binds”.

Regarding MPLSRYWWLFSHRPR [peptide identified by SEQ ID NO: 18], the binding result was “binds”.
